The source of these data is US7981998 (dated 2011).

This data set in a line: general procedure: Fmoc solid-phase peptide synthesis; Knorr Amide resin; HCTU, DIEA. Conditions: whole synthesis, scale 0.1 mmol.

Take “Ac-Asp-Ile-Re-Arg-Asn-Ile-Ala-Arg-His-Leu-Ala-c[MeCys-Val-Gly-Asp-α-MeCys]-Nle-Asp-Arg-Ser-Ile-NH2”: the isolated mass is on record as 0.6 mg.
